# Experimental data from PubChem BioAssay AID330 (DTP/NCI, 2004).
# The list is a part of this screen's results and no random one: it is rich in T/C values a quarter to a half above the control, in often repeated tests (any T/C) and in doses without a T/C. Other doses and runs of a compound stand elsewhere. T/C gives the treated animals as a percentage of the vehicle group. Some doses have a count of surviving animals in place of a T/C: the source files T/C as zero there, which appears to mark a toxic dose or a test without result, not a measured value. Some doses without a T/C left all or most animals alive at the check, yet need not have been tolerated: the source hardly ever lists a survival T/C far under the control, and the zero likely stands for such cases as well. Counts of survivors are from the toxicity check (mostly the fifth day) where no day follows; animals may have died later. Schedule codes are those of the source, taken here to give the interval after Q, in days (D) or hours (H), and the number of doses after X. Some entries were tested several times; the results are listed from low to high. Some structures stand for samples that the source files as different forms (salt, stereo form or complex); doses refer to the form tested. Some schedules carry Z or #; the key to these is not given. Where survival is the endpoint, the PubChem record calls one and a half times the control and up active, and a quarter to a half above the control has no call in these data; cut-offs in other NCI protocols can differ. Brackets with × count equal records among those shown.
# Test system: P388 leukemia ip, CD2F1 mice, survival T/C
# Experiment: NCI In Vivo Anticancer Drug Screen. Data for tumor model P388 Leukemia (intraperitoneal) in CD2F1 (CDF1) mice
# Settings: T/C endpoint: median survival time, higher T/C = longer survival
# [1] = dose: 50.0 mg/kg/injection, schedule: Q01DX005 (ip), vehicle: saline
# [2] = dose: 200.0 mg/kg/injection, schedule: Q01DX005 (ip), vehicle: saline
# [3] = dose: 200.0 mg/kg/injection, schedule: Q01DX009 (ip), vehicle: saline with Tween-80
# [4] = dose: 50.0 mg/kg/injection, schedule: Q01DX005 (ip), vehicle: saline with Tween-80
# [5] = dose: 100.0 mg/kg/injection, schedule: Q01DX005 (ip), vehicle: saline with Tween-80
# [6] = dose: 240.0 mg/kg/injection, schedule: Q01DX005 (ip), vehicle: saline
# [7] = dose: 200.0 mg/kg/injection, schedule: Q01DX005 (ip), vehicle: saline with Tween-80
# [8] = dose: 200.0 mg/kg/injection, schedule: Q01DX009 (ip), vehicle: saline
# [9] = dose: 100.0 mg/kg/injection, schedule: Q01DX005 (ip), vehicle: saline
# [10] = dose: 400.0 mg/kg/injection, schedule: Q01DX001 (ip), vehicle: saline with Tween-80
# [11] = dose: 240.0 mg/kg/injection, schedule: Q01DX005 (ip), vehicle: saline with Tween-80
smiles,measurement,setting,value
O=C1C2C(C(=O)N1c1ccc(OCc3ccccc3)cc1)C1c3ccccc3C2C2CCCCN21 (stereo not drawn),survivor count,"dose: 50.0 mg/kg/injection, schedule: Q01DX009 (ip), vehicle: water",1 of 6
CNC(=O)OCc1c(COC(=O)NC)c(-c2ccccc2)n(-c2ccc(Cl)c(Cl)c2)c1C,T/C,"dose: 12.5 mg/kg/injection, schedule: Q01DX009 (ip), vehicle: distilled water + Tween-80",125 % of control
same,T/C,"dose: 25.0 mg/kg/injection, schedule: Q01DX009 (ip), vehicle: distilled water + Tween-80",142 % of control
same,T/C,"dose: 50.0 mg/kg/injection, schedule: Q01DX009 (ip), vehicle: distilled water + Tween-80, evaluated on day 30",146 % of control
same,T/C,"dose: 50.0 mg/kg/injection, schedule: Q01DX009 (ip), vehicle: distilled water + Tween-80, evaluated on day 40",142 % of control
C=C(C)C(=NC(C)(C)C)Nc1ccccc1,T/C,"dose: 20.0 mg/kg/injection, schedule: Q01DX005 (ip), vehicle: saline",134 % of control
same,survivor count,"dose: 25.0 mg/kg/injection, schedule: Q01DX009 (ip), vehicle: saline with Tween-80",6 of 6
same,T/C,"dose: 40.0 mg/kg/injection, schedule: Q01DX005 (ip), vehicle: saline",147 % of control
same,T/C,[1],135 % of control
same,T/C,"dose: 50.0 mg/kg/injection, schedule: Q01DX009 (ip), vehicle: saline with Tween-80",125 % of control (2×)
same,T/C,"dose: 80.0 mg/kg/injection, schedule: Q01DX005 (ip), vehicle: saline",142 % of control
same,T/C,"dose: 100.0 mg/kg/injection, schedule: Q01DX009 (ip), vehicle: saline with Tween-80",134 and 148 % of control
same,survivor count,[2],0 of 6
same,survivor count,[3],3 of 6
CCOC(=O)c1c(-c2ccccc2)csc1NC(=O)CN1CCOCC1,survivor count,[4],6 of 6
same,survivor count,[5],6 of 6
CC(C)c1[nH]c2ccccc2c1Cn1ccnc1,survivor count,"dose: 200.0 mg/kg/injection, schedule: Q01DX005 (ip), vehicle: Klucel (hydroxypropylcellulose) (HPC)",0 of 5
CN(C)CC[Si](C)(C)N(C)C,survivor count,[6],0 of 6
BrCCC[n+]1ccc2ccccc2c1-c1nccc2ccccc12,survivor count,"dose: 25.0 mg/kg/injection, schedule: Q01DX001 (ip), vehicle: saline",0 of 6
same,survivor count,"dose: 50.0 mg/kg/injection, schedule: Q01DX001 (ip), vehicle: saline",0 of 6
CCOC(=O)N(NC(=O)c1ccccc1)C(C)=O,survivor count,"dose: 100.0 mg/kg/injection, schedule: Q01DX009 (ip), vehicle: other",2 of 6
same,survivor count,"dose: 200.0 mg/kg/injection, schedule: Q01DX009 (ip), vehicle: other",0 of 6
O=C1C2CCC(C2)C1CN1CCCCC1 (stereo not drawn),survivor count,[4],2 of 6
same,survivor count,[5],0 of 6
same,survivor count,[7],0 of 6
Cc1ccccc1/C=N\N1C(=O)C(C)SC1c1ccccc1C (stereo not drawn),survivor count,[3],6 of 6
CC(=NCc1ccccc1)/C(=N\O)C(=O)Nc1ccc(Cl)cc1,survivor count,"dose: 100.0 mg/kg/injection, schedule: Q04DX003 (ip), vehicle: saline with Tween-80",6 of 6
same,survivor count,"dose: 200.0 mg/kg/injection, schedule: Q04DX003 (ip), vehicle: saline with Tween-80",6 of 6
C[N+]1(C)CCN(Cc2ccc3c(c2)CCc2ccccc2N3)CC1,survivor count,"dose: 15.0 mg/kg/injection, schedule: Q01DX005 (ip), vehicle: saline",0 of 6
same,survivor count,"dose: 60.0 mg/kg/injection, schedule: Q01DX005 (ip), vehicle: saline",0 of 6
same,survivor count,"dose: 120.0 mg/kg/injection, schedule: Q01DX005 (ip), vehicle: saline",0 of 6
same,survivor count,[6],0 of 6
OCc1ccc2ccc3ccc(CO)nc3c2n1,survivor count,[7],2 of 6
OCC1OC2OC3C(CO)OC(OC4C(CO)OC(OC5C(CO)OC(OC6C(CO)OC(OC7C(CO)OC(OC8C(CO)OC(OC1C(O)C2O)C(O)C8O)C(O)C7O)C(O)C6O)C(O)C5O)C(O)C4O)C(O)C3O (stereo not drawn),survivor count,[8],5 of 6
CC[n+]1c(C)sc2ccccc21,survivor count,[9],0 of 5
ClCc1cnc[nH]1,survivor count,[8],3 of 6
c1ccc2c(NCCCCCCCCCCCCNc3c4ccccc4nc4ccccc34)c3ccccc3nc2c1,survivor count,"dose: 10.0 mg/kg/injection, schedule: Q## X009 (ip), vehicle: lactic acid",1 of 6 and 2 of 6
same,survivor count,"dose: 20.0 mg/kg/injection, schedule: Q## X009 (ip), vehicle: lactic acid",0 of 5
C1OC1CN1CCN(CC2CO2)CC1 (stereo not drawn),T/C,"dose: 8.0 mg/kg/injection, schedule: Q01DX009 (ip), vehicle: saline",125 % of control
same,T/C,"dose: 16.0 mg/kg/injection, schedule: Q01DX009 (ip), vehicle: saline",145 % of control
same,survivor count,"dose: 64.0 mg/kg/injection, schedule: Q01DX009 (ip), vehicle: saline",5 of 6 and 6 of 6
same,survivor count,"dose: 128.0 mg/kg/injection, schedule: Q01DX009 (ip), vehicle: saline",5 of 6
Cc1csc2ncnc(N)c12,survivor count,"dose: 400.0 mg/kg/injection, schedule: Q04DX003 (ip), vehicle: Klucel (hydroxypropylcellulose) (HPC)",3 of 6
Cc1cccc(C(=O)C(CN(C)C)CN(C)C)c1,survivor count,[1],0 of 6 and 1 of 5
same,survivor count,[9],0 of 5
same,survivor count,[2],0 of 5
CN(C)C1C[C@@H](O[Si](C)(C)C(C)(C)C)C=C1S(=O)(=O)c1ccccc1 (stereo partly drawn),survivor count,"dose: 120.0 mg/kg/injection, schedule: Q01DX005 (ip), vehicle: Klucel (hydroxypropylcellulose) (HPC)",0 of 6
same,survivor count,"dose: 240.0 mg/kg/injection, schedule: Q01DX005 (ip), vehicle: Klucel (hydroxypropylcellulose) (HPC)",0 of 6
CCNc1nn2ccccc2c1/C=C(/C#N)C(=O)OCC,survivor count,[10],6 of 6
COc1cccc2c(NCCCCCO[N+](=O)[O-])cc[n+](C)c12,survivor count,"dose: 50.0 mg/kg/injection, schedule: Q01DX009 (ip), vehicle: Klucel (hydroxypropylcellulose) (HPC)",5 of 6
same,survivor count,"dose: 100.0 mg/kg/injection, schedule: Q01DX009 (ip), vehicle: Klucel (hydroxypropylcellulose) (HPC)",2 of 6
same,survivor count,"dose: 200.0 mg/kg/injection, schedule: Q01DX009 (ip), vehicle: Klucel (hydroxypropylcellulose) (HPC)",0 of 6
C=CCOc1ccccc1N/N=C(\Cl)C(=O)OC,survivor count,[5],0 of 6
same,survivor count,[7],0 of 6
O=[N+]([O-])c1ccc(SCc2ccccc2)c2nonc12,survivor count,"dose: 12.5 mg/kg/injection, schedule: Q01DX009 (ip), vehicle: saline",6 of 6
same,T/C,"dose: 100.0 mg/kg/injection, schedule: Q01DX009 (ip), vehicle: suspension in saline",131 % of control
CNc1nc2cc(OC)c(OC)cc2c(=O)[nH]1,survivor count,[11],3 of 6
CSc1nc(SC)c2c(CNC(C)=O)cn(Cc3ccccc3)c2n1,survivor count,"dose: 100.0 mg/kg/injection, schedule: Q01DX001 (ip), vehicle: saline with Tween-80",6 of 6
same,survivor count,[10],1 of 6
O=C(Nc1ccccc1)/C(Cl)=C(/Cl)C(=O)C(Cl)(Cl)Cl,survivor count,"dose: 50.0 mg/kg/injection, schedule: Q01DX009 (ip), vehicle: distilled water + Tween-80",0 of 6
same,survivor count,"dose: 100.0 mg/kg/injection, schedule: Q01DX009 (ip), vehicle: distilled water + Tween-80",0 of 6
same,survivor count,"dose: 200.0 mg/kg/injection, schedule: Q01DX009 (ip), vehicle: distilled water + Tween-80",0 of 6
O=C(CN1CCN(c2ccccc2)CC1)n1nnc2ccccc21,survivor count,[11],6 of 6
